Binding data for four substances are collected here from publication PMC12108377.

The chains behind the UniProt entries cited, without tags or fusion partners. Where a name states a change or a piece, a line headed by the entry shows the natural chain unless it says otherwise. A line that says so, or that is headed by a name, gives the form on record, which may keep a tag or linker. Residues count along the entry.
canine KIT wild type (O97799, residues 28-979): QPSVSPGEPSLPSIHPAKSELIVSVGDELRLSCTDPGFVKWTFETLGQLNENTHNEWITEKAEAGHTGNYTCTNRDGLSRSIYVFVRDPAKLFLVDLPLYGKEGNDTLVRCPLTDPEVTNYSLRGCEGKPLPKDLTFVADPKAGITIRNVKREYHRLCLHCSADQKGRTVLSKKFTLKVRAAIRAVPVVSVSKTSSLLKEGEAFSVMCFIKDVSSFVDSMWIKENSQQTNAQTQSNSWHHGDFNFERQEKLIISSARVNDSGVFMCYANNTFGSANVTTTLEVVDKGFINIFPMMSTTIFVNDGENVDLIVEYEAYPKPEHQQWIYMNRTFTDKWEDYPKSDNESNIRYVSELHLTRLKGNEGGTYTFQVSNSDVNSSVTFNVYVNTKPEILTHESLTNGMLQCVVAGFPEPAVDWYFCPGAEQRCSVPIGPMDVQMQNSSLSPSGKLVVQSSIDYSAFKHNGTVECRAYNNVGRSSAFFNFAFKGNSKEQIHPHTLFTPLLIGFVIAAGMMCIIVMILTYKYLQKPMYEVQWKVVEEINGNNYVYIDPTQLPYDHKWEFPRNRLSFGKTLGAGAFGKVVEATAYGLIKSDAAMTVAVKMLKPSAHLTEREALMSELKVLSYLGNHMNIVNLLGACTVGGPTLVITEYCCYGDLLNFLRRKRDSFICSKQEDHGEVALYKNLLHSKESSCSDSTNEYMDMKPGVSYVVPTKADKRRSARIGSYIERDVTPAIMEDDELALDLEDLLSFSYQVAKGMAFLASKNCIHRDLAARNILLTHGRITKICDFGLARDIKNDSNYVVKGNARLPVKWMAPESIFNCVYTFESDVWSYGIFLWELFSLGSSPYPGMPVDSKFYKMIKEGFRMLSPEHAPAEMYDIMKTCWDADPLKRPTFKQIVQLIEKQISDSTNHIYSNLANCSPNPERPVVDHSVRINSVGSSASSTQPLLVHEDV
canine KIT A434T mutant (O97799, form named): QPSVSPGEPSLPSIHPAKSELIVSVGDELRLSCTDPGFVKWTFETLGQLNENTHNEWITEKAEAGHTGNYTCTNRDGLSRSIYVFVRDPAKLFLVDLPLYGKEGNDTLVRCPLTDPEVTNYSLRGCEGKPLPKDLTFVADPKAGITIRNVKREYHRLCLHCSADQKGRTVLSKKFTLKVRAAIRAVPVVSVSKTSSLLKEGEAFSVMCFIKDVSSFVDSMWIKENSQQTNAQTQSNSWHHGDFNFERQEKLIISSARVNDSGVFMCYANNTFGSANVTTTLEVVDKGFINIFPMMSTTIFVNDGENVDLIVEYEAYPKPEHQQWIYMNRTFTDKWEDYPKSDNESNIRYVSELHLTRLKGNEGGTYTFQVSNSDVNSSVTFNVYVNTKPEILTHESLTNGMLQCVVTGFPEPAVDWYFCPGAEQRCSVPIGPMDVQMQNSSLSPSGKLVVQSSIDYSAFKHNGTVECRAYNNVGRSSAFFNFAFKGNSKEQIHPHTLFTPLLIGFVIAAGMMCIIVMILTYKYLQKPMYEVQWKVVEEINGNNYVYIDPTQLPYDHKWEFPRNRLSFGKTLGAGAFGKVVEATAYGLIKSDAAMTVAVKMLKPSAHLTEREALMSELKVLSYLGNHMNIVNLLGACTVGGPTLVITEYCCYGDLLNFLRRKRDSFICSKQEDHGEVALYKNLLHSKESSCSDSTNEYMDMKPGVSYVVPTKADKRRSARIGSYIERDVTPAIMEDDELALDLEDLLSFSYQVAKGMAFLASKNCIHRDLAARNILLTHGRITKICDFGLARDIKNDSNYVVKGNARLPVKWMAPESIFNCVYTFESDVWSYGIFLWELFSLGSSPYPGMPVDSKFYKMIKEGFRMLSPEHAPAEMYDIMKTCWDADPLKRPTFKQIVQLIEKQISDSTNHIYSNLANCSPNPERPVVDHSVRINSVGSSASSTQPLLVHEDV
canine KIT F436S mutant (O97799, form named): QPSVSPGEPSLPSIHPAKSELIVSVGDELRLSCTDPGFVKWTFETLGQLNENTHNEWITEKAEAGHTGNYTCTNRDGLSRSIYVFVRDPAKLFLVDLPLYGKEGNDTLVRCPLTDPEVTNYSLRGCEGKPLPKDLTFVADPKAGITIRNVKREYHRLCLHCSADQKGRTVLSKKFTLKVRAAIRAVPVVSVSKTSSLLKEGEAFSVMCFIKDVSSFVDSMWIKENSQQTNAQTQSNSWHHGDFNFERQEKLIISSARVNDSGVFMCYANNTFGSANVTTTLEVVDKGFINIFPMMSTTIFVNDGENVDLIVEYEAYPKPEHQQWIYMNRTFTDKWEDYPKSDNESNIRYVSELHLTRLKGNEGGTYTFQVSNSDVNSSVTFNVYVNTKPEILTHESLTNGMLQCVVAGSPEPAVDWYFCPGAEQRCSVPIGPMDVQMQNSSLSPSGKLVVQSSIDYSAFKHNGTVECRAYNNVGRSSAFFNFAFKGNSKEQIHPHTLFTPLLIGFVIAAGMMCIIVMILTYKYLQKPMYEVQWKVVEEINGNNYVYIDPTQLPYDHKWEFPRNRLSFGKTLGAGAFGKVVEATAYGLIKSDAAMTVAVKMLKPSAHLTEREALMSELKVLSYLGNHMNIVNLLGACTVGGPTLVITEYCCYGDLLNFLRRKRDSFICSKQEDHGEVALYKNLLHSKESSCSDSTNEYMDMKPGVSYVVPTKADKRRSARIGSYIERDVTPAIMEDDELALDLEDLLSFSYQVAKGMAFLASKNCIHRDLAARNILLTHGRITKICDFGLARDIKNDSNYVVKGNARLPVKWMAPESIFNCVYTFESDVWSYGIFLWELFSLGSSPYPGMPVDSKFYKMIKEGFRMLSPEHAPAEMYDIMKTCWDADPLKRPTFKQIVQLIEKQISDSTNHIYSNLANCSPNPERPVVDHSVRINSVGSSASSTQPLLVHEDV
canine KIT F436S/N508I co-mutant (O97799, form named): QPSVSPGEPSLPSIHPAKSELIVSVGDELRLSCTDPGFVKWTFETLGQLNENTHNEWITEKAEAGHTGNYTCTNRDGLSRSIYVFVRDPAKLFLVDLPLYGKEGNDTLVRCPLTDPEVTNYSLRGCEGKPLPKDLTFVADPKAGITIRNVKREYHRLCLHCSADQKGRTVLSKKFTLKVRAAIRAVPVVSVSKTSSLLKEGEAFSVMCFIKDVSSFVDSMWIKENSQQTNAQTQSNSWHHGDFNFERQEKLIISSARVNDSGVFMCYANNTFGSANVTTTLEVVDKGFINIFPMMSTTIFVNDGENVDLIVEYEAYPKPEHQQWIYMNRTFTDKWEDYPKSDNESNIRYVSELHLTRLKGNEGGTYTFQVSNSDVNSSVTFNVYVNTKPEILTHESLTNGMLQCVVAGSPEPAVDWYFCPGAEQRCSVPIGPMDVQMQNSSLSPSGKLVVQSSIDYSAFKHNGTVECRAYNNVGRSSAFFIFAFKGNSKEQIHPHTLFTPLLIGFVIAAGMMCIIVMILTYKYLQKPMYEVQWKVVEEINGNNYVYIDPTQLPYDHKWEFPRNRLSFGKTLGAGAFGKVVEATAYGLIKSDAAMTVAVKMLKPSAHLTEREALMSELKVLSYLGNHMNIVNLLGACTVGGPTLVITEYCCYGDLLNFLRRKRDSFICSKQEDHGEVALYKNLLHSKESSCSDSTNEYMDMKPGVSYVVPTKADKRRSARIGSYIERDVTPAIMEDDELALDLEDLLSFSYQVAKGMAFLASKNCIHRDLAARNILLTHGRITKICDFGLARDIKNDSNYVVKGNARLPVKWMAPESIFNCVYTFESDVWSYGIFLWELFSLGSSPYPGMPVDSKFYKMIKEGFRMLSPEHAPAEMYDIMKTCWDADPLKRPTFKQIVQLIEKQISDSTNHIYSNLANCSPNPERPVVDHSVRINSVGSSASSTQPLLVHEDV

These are yes or no findings as the source states them, for the method shown. In cells and extracts the contact can be indirect. Some results given as binding are weak or reduced against the parent protein; the word gives no strength.

Assay in all cases: pull-down; Halo- and HA-tagged canine KIT co-transfected in AD-293 cells; 12 h serum starvation, with or without 100 ng/mL SCF for 30 min; lysate on Magne Halo-Tag beads overnight at 4 °C, washed with TBS with 0.05% IGEPAL CA-630; Western blot with anti-HA
The target of assay [1] is canine KIT A434T mutant (canine) (UniProt O97799).
For assay [2], the target named is canine KIT F436S mutant (canine) (UniProt O97799).
Assay [3] deals with canine KIT F436S/N508I co-mutant (canine) (UniProt O97799).
For assay [4], the target named is canine KIT wild type (canine) (UniProt O97799).

Turning to “canine KIT A434T mutant (from UniProt O97799 28-979) (receptor)”, in assay [1], the binding result is given as “binds”. “canine KIT F436S mutant (from UniProt O97799 28-979) (receptor)”: the binding result in assay [2] is given as “binds”.

Take “canine KIT F436S/N508I co-mutant (from UniProt O97799 28-979) (receptor)”: in assay [3], the binding result is “binds”. In the case of “canine KIT wild type (from UniProt O97799 28-979) (receptor)”, the binding entry in assay [4] is reported as “binds”.
